Experiment in all cases: DAPPL (digital affinity profiling via proximity ligation, sequencing)
Common to all, as to details: 10 mM Tris-HCl pH 7.5, 50 mM NaCl, 1 mM DTT, 4% glycerol, room temperature, 30 min; GST-TFs on glutathione beads, 16-mer random dsDNA library, 0.1% …; high values mean tight binding; double strand, one strand shown; scale: fold enrichment (6-mer frequency, TF over GST control)

Amino acid sequences for entries named in this document (tags omitted). A change or cut given only in a name is not applied to a line headed by its entry.
UniProt P32519: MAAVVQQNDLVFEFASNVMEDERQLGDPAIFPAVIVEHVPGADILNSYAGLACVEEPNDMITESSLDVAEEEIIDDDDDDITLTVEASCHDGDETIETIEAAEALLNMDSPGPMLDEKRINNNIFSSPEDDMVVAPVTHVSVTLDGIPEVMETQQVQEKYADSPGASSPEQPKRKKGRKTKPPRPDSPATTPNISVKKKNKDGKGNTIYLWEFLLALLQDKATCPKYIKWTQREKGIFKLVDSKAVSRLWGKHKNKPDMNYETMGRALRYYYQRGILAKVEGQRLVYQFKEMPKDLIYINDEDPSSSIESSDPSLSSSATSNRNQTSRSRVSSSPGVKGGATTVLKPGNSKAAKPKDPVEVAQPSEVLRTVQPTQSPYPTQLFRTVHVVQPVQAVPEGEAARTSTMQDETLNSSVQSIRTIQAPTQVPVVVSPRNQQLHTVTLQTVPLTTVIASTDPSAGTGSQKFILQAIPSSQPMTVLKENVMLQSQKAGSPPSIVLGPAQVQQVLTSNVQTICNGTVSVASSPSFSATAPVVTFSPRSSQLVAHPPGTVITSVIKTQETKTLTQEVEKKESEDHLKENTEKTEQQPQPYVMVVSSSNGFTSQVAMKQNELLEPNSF
UniProt P50549: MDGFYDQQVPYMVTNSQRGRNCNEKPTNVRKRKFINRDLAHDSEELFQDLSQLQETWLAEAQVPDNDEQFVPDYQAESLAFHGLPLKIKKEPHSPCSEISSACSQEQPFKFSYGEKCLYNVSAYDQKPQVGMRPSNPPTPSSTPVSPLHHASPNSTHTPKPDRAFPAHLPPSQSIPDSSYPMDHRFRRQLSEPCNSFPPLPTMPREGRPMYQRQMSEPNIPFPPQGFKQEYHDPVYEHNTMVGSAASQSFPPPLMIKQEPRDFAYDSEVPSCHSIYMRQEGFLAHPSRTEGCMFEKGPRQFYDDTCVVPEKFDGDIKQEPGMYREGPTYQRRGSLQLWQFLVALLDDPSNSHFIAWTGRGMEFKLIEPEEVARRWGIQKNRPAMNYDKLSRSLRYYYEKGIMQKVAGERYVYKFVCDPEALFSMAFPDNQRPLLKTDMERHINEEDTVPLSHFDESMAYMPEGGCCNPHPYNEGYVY

One experiment has as its target T1, ERG (UniProt P11308).
T1 sequence: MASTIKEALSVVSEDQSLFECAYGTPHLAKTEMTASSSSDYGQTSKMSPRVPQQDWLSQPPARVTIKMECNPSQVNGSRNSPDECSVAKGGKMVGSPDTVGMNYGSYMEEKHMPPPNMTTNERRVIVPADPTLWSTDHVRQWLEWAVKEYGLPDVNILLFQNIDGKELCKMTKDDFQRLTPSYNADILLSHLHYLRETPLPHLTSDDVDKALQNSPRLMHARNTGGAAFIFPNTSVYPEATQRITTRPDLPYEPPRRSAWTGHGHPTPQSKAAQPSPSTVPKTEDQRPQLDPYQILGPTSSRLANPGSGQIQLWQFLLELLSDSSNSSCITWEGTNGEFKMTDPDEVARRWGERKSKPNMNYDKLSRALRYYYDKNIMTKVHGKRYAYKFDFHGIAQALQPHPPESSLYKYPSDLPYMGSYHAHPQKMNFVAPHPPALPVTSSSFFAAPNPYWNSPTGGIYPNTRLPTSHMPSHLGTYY

The next experiment concerns the target ELF1 (UniProt P32519).
The next experiment concerns the target T2, ETV4 (UniProt P43268).
T2 sequence: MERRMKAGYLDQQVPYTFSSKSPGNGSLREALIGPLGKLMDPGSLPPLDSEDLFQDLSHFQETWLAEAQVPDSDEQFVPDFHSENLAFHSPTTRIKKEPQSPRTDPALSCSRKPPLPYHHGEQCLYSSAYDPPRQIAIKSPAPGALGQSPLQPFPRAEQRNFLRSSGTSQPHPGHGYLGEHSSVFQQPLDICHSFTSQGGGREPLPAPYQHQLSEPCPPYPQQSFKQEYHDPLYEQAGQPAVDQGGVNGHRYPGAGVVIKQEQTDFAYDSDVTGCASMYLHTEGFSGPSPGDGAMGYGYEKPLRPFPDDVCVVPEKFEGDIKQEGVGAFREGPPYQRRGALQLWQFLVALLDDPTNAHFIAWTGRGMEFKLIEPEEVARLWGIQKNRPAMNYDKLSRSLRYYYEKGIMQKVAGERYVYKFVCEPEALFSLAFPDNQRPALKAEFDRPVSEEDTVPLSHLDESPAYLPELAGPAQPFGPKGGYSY

In another experiment the target is ETV1 (UniProt P50549).
The next experiment addresses T3, ERF (UniProt P50548).
T3 sequence: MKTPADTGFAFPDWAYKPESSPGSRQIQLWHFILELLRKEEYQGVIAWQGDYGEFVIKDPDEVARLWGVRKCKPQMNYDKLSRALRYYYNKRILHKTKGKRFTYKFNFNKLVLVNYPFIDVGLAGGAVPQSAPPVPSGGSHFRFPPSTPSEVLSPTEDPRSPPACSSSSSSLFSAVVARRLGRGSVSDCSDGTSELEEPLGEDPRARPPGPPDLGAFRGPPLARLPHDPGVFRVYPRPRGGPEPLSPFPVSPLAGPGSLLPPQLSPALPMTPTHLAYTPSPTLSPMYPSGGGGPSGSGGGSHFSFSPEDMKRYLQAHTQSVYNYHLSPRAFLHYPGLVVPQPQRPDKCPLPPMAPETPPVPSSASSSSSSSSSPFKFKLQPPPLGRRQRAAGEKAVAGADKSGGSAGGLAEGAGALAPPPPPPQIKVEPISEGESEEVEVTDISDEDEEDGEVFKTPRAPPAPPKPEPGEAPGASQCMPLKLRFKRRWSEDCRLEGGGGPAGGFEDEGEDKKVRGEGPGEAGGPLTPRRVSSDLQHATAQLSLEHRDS

Only a part is listed here, and it is no random draw. For some assays here: At the low end of the ranking the order means little. This is one part of the list. For some assays here: The exact form of the protein is not confirmed.

On to GTGGTA, for which the binding signal turned out to be 0.942 in the experiment with ERG; 0.909 with ELF1; 0.99 with ETV4; 0.879 in the experiment with ETV1; 0.998 with ERF.
Take GGTATG: the binding signal was found to be 0.979 with ERG, 0.977 in the experiment with ETV4, 0.948 with ETV1 and 0.922 in the experiment with ERF.
On to CCGCCA, for which the binding signal with ERG is 1.3; with ETV4 it was 1.23; in the experiment with ETV1, 1.32.
Take AGCCAC: the binding signal in the experiment with ERG was found to be 0.954; with ELF1, 0.953; in the experiment with ETV4, 1.03; with ETV1 it was 1.04; with ERF, 1.01.
On the same counts, the results for GCGCCG are 0.98, 0.897, 0.936, 0.914 and 0.876.
The like results for GCCGCA were, in that order, 0.997, 1.04, 0.926, 0.95 and 1.07.
On the same counts, the results for AGTTTG are 0.872, 0.89, 0.885, 0.978 and 1.01.
For the sequence GCAAGC, the binding signal with ERG came to 0.87; with ELF1, 0.955; with ETV4, 0.872; with ETV1, 0.943; with ERF, 0.899.
On the same counts, the results for CTGTGT are 0.889, 0.843, 0.879, 0.805 and 0.861.
On the same counts, the results for ATAAGT are 0.972, 1.08, 1.03, 0.982 and 0.989.
On the same counts, the results for GGCTGC are 0.915, 0.959, 1.03, 0.92 and 0.994.
Turning to CGCGTA, the binding signal with ERG was found to be 0.965; with ELF1 it was 0.941; with ETV4, 0.977; in the experiment with ETV1, 0.949; in the experiment with ERF it was 0.923.
The like results for GCGTTA were, in that order, 0.929, 0.939, 0.909, 0.918 and 0.878.
On the same counts, the results for CCCAGA are 0.932, 0.875, 0.841, 0.866 and 0.872.
For GCGTCA, the binding signal stood at 0.982 with ERG; 0.984 with ELF1; 0.986 in the experiment with ETV4; 0.963 with ETV1; 0.981 with ERF.
On the same counts, the results for CATCAG are 0.962, 0.929, 0.92, 0.886 and 0.899.
On the same counts, the results for CTTGAG are 0.974, 0.944, 0.911, 0.905 and 0.904.
The like results for GCAGGT were, in that order, 0.941, 0.842, 0.826, 0.925 and 0.889.
On to CGAAGG, for which the binding signal with ERG was found to be 0.812; in the experiment with ELF1, 0.966; in the experiment with ETV4, 0.942; in the experiment with ETV1, 0.914; with ERF it was 0.955.
TCCAGC: the binding signal in the experiment with ERG came out at 0.972; with ELF1, 0.929; in the experiment with ETV4 it was 0.938; in the experiment with ETV1 it was 0.919; in the experiment with ERF, 0.922.
The like results for GCCACC were, in that order, 0.85, 0.914, 0.952, 0.965 and 0.858.
The like results for AACAGA were, in that order, 0.994, 0.928, 0.981, 0.99 and 0.932.
Turning to CCAGAA, the binding signal in the experiment with ERG stood at 0.983; with ELF1, 0.997; with ETV4, 0.92; with ETV1, 0.969; in the experiment with ERF it was 0.908.
For the sequence GCGCAC, the binding signal is 0.849 with ERG; 0.923 with ELF1; 0.897 with ETV4; 0.877 with ETV1; 0.923 with ERF.
Turning to GATAAA, the binding signal was found to be 0.966 with ERG; 0.957 in the experiment with ELF1; 0.932 with ETV4; 0.954 in the experiment with ETV1; 0.943 with ERF.
On the same counts, the results for CGCGCA are 0.937, 0.939, 0.96, 0.921 and 0.921.
TGTTAG: the binding signal in the experiment with ERG was 0.881; with ELF1 it was 0.879; with ETV4 it was 0.956; with ETV1, 0.969; with ERF, 0.987.
For CAAGCC, the binding signal in the experiment with ERG came to 0.911; in the experiment with ELF1, 0.969; in the experiment with ETV4, 1.01; with ETV1, 0.99; in the experiment with ERF it was 0.99.
In the case of GTGGTC, the binding signal in the experiment with ERG turned out to be 0.882; in the experiment with ELF1, 0.857; with ETV4, 0.805; with ETV1, 0.83; with ERF it was 0.931.
The like results for GCCTGG were, in that order, 0.959, 0.96, 0.989, 0.987 and 0.946.
As to GTGTTG, the binding signal with ERG stood at 0.843; in the experiment with ELF1, 0.931; with ETV4, 0.936; with ETV1, 0.88; with ERF it was 0.965.
With GTTGGT, the binding signal was found to be 0.891 with ERG; 0.965 with ELF1; 0.907 with ETV4; 0.996 with ETV1; 0.973 with ERF.
The like results for AGGGTT were, in that order, 0.875, 0.979, 0.948, 1.01 and 0.944.
As for AGATAT, the binding signal was 0.983 with ERG; 0.979 with ELF1; 0.974 in the experiment with ETV4; 0.95 with ETV1; 0.956 with ERF.
The like results for ACAGTT were, in that order, 0.821, 0.831, 0.764, 0.808 and 0.902.
The like results for ATAGTC were, in that order, 0.942, 0.971, 0.909, 0.973 and 0.908.
The like results for GTGGAA were, in that order, 0.984, 0.942, 0.96, 0.944 and 0.89.
For the sequence GCCTGT, the binding signal was 0.944 with ERG; 0.869 with ELF1; 0.921 with ETV4; 0.962 with ETV1; 0.947 in the experiment with ERF.
The like results for GTAGCG were, in that order, 0.944, 0.921, 1.02, 0.993 and 0.845.
On the same counts, the results for ACCAAA are 0.969, 1.04, 1.06, 0.956 and 1.03.
Turning to TGGGAC, the binding signal with ERG is 0.962; in the experiment with ELF1 it was 0.993; with ETV4 it was 1.02; with ETV1, 0.973; with ERF it was 0.994.
On the same counts, the results for GGCCTG are 0.812, 0.878, 0.918, 0.894 and 0.956.
On the same counts, the results for CTGAGG are 0.785, 0.871, 0.906, 0.875 and 0.883.
The like results for ATCAGA were, in that order, 0.92, 0.947, 0.917, 0.864 and 0.945.
In the case of GCTAAC, the binding signal was determined as 0.992 in the experiment with ERG, 1.04 in the experiment with ELF1, 1.08 in the experiment with ETV4 and 0.976 with ETV1.
In the case of TGGCGC, the binding signal in the experiment with ERG came out at 0.95; with ELF1, 0.917; with ETV4, 1; with ETV1 it was 0.876; with ERF, 0.973.
As to GCCCCG, the binding signal with ERG amounted to 1.06; with ELF1 it was 0.974; with ETV4, 1.09; with ETV1 it was 0.966.
